Test [1] has as its target T1, CRY1 PHR (residues 1-491) after cleavage of the His6 tag, with residual vector sequence (Example 6) (human) (UniProt Q16526).
T1 sequence: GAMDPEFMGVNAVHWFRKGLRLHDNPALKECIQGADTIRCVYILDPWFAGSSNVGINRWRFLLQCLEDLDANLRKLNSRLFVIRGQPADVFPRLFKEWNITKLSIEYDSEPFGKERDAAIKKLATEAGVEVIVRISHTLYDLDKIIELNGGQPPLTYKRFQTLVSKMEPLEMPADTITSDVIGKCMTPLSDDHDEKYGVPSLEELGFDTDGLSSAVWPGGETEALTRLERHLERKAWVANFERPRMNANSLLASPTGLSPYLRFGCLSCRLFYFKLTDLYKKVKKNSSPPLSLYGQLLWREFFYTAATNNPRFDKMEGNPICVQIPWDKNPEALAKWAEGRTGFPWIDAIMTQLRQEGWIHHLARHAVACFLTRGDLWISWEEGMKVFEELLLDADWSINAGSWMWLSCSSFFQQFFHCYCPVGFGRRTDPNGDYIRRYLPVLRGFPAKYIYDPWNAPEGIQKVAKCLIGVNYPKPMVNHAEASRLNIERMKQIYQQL
Nature of the test: FP displacement assay; 100 µM peptide, 20 nM CLOCK PAS-B probe, 4 µM CRY1 PHR; competitor of labeled CLOCK PAS-B.

The chains behind the UniProt entries cited, without tags or fusion partners. Where a name states a change or a piece, a line headed by the entry shows the natural chain unless it says otherwise.
UniProt Q16526: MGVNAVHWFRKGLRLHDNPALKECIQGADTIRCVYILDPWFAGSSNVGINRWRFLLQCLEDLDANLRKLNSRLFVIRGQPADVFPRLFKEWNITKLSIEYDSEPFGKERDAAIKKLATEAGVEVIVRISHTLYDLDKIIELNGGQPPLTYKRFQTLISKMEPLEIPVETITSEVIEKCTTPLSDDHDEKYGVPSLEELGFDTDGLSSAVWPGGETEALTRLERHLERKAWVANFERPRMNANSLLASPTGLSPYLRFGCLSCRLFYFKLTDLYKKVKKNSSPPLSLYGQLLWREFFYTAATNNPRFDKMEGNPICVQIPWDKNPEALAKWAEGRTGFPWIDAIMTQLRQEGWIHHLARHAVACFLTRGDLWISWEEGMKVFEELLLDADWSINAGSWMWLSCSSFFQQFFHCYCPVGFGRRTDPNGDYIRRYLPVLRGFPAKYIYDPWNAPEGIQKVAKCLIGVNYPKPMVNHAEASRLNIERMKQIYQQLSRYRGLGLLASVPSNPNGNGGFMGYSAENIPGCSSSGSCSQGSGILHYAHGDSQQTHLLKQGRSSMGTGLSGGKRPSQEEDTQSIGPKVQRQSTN

In test [2] the target is T1, CRY1 PHR (residues 1-491) after cleavage of the His6 tag, with residual vector sequence (Example 6) (human). Nature of the test: FP displacement assay; competitor of labeled CLOCK PAS-B.

Binding data for one molecule are collected here from patent publication US20190324032A1 (University of California, published 2019).

Results are given in words; binding and its absence hold for the method and conditions named. Some entries that bind do so weakly or less than the wild type. Sequences can lack the tags named with a protein.

With CSQGSGILHYAHGDSQQTHLLK [Human CRY1 Exon 11-encoded peptide (residues 530-552)], the binding result in test [1] and in test [2] was “binds” in each case.
